# Measured values as given in PubChem BioAssay AID504834 (National Center for Advancing Translational Sciences (NCATS), 2011).
# “And” between values parts separate entries of the source, which are not always exact repeats. Equal values may be shown once. The campaign covered roughly 320,000 compounds. About 22,000 (6.9%) were called active. This list was built around the results that the source calls inconclusive (neither active nor inactive); the mix of calls is not that of the screen. The call rests on the fitted dose curve; in most records, active means well fitted inhibition curve with a large enough effect; inconclusive means small, poorly fitted or top-dose-only effect, or another doubt; inactive means no such curve, though single readings can be large or run the other way. Potencies beside an inconclusive call are fits to weak or partial responses and may not hold up. Some structures have more than one record in an assay (separate samples or runs), and their calls can disagree.
# Assay: Primary qHTS for delayed death inhibitors of the malarial parasite plastid, 96 hour incubation
# Settings: P. falciparum luciferase reporter growth; series mostly up to 28.7 µM
# Summary of the method: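 Erythrocytes infected with luciferase-expressing P. falciparum were dispensed at 2% hematocrit and 0.05% parasitemia (final), then incubated with compounds 96 hours at 37 C in 5% CO2. Luminescence after detection reagent addition reported growth.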
# Potency means the concentration at half of the fitted maximal effect.
row,Compound,Potency
1,CC(C)[C@H](NC(=O)N1CC(=O)Nc2ccccc21)C(=O)N[C@@H](C(=O)O)c1ccccc1,inactive
2,COCCn1c(SCC(=O)NC2CCCCC2)nnc1-c1ccncc1,"inconclusive: 4.65 µM [inhibitor, partial curve]"
3,Cc1sc(N)nc1-c1ccc(Oc2ccccc2)cc1,"inconclusive: 7.38 µM [inhibitor, partial curve, poor fit]"
4,COC(=O)c1[nH]c2ccc(C)cc2c1NS(=O)(=O)c1ccc(F)c(C)c1,"inconclusive: 11.7 µM [inhibitor, partial curve]"
5,COc1ccc(-n2c(SCC(C)=O)nc3sc(C)c(C)c3c2=O)cc1,"inconclusive: 13.1 µM [inhibitor, partial curve]"
6,COc1cc(Cl)ccc1OCc1cc(C(=O)N2CC[C@@H]3CCCC[C@H]3C2)no1,inactive
7,CNC(=S)NNC(=O)c1cccs1,inactive
8,O=C(NC1CCN(Cc2ccc(Cl)cc2)CC1)c1cn(-c2ccccc2)nc1-c1cccnc1,"inconclusive: 3.29 µM [inhibitor, full curve, poor fit]"
9,COc1ccc(/C=C/C(=O)c2cc(Br)ccc2O)cc1OC,"inconclusive: 16.5 µM [inhibitor, single point]"
10,CCOc1ccc(C(=O)OCC(=O)NC(C)C)cc1,inactive
11,COc1cccc(-n2c(SCC(=O)Nc3ccc4c(c3)CCC4)nc3ccccc3c2=O)c1,"inconclusive: 16.5 µM [inhibitor, single point]"
12,CCN1C(=O)[C@@H]2[C@@H](c3ccc(-c4ccc(Cl)c(Cl)c4)cc3)N3CCCC[C@@]3(C(=O)OC)[C@@H]2C1=O,"inconclusive: 2.33 µM [inhibitor, full curve, poor fit]"
13,O=C(COC(=O)c1cccc(S(=O)(=O)N2CCCC2)c1)NCc1ccccc1,"inconclusive: 4.65 µM [inhibitor, partial curve, poor fit]"
14,Cc1ccc(CCNS(=O)(=O)c2ccc3c(c2)NC(=O)CCS3)cc1,active: 13.1 µM
15,CN(C(=O)COC(=O)c1ccc(Cl)nc1)C1CCS(=O)(=O)C1 (centres undefined),inactive
16,O=C(c1ccc2ccccc2c1)C1CCCN(C(=O)c2noc3c2CCCC3)C1 (centres undefined),"inconclusive: 13.1 µM [inhibitor, single point]"
17,CC(Oc1cccc(Cl)c1)C(=O)Nc1cc(S(=O)(=O)N2CCOCC2)ccc1N1CCCCC1 (centres undefined),"inconclusive: 1.65 µM [inhibitor, full curve]"
18,O=C(c1ccccc1[N+](=O)[O-])N1CCC(Cc2ccccc2)CC1,"inconclusive: 0.104 µM [inhibitor, full curve, poor fit]"
19,CN(C)/C=C/C(=O)c1ccc2noc(-c3cccc(F)c3)c2c1,"inconclusive: 18.5 µM [inhibitor, single point]"
20,Cc1ccc(S(=O)(=O)CCC(=O)Nc2sccc2C#N)cc1,"inconclusive: 5.86 µM [inhibitor, partial curve]"
21,Cn1cnnc1SCC(=O)Nc1cc(S(=O)(=O)N2CCCCCC2)ccc1Cl,"inconclusive: 9.28 µM [inhibitor, partial curve, poor fit]"
22,CC(/C=N/NC(=O)COc1ccccc1C)=N\NC(=O)COc1ccccc1C,"inconclusive: 18.5 µM [inhibitor, single point]"
23,COc1ccccc1NS(=O)(=O)c1cccc(C(=O)NNC(=O)c2ccc(NC(C)=O)cc2)c1,"inconclusive: 4.15 µM [inhibitor, partial curve, poor fit]"

row,Compound,Potency
1,Cn1c(N2CCOCC2)c(/C=N/OC(=O)c2ccc(F)cc2)c2ccccc21,active: 1.04 µM
2,COc1ccc(CNC(=O)C(c2cccc(C)c2)N(C(=O)c2csnn2)C2CC2)cc1 (centres undefined),"inconclusive: 4.15 µM [inhibitor, partial curve]"
3,CCC1CCCCN1S(=O)(=O)c1ccc2[nH]c(=O)ccc2c1 (centres undefined),active: 3.29 µM
4,COc1ccc(CCNC(=O)CSc2ccc(-c3ccccc3)nn2)cc1OC,inactive
5,O=C(CSc1c2c(nc3ccc(Cl)cc13)CCCC2)NCc1ccco1,active: 9.28 µM
6,O=S(=O)(c1ccc(F)cc1)n1ccc(-c2cccc(OCc3c(F)cccc3Cl)c2)n1,"inconclusive: 18.5 µM [inhibitor, single point]"
7,Cc1cc(C(=O)NCC(=O)OC(C(=O)Nc2cc(C(F)(F)F)ccc2Cl)c2ccccc2)ccc1[N+](=O)[O-] (centres undefined),"inconclusive: 14.7 µM [inhibitor, partial curve, poor fit]"
8,COc1ccccc1N1CCN(C(=O)c2cc(-c3ccco3)on2)CC1,"inconclusive: 0.329 µM [inhibitor, partial curve, poor fit]"
9,CCN(CC)CCCNc1oc(/C=C/c2ccccc2)nc1C#N,inactive
10,CC(C)Oc1cccc(C(=O)NC2=NCCS2)c1,"inconclusive: 0.657 µM [inhibitor, full curve, poor fit]"
11,Cc1cc(OCC(=O)O/N=C(\N)Cc2cccs2)ccc1Br,inactive
12,NC(=S)N/N=C/c1ccccc1,"inconclusive: 18.5 µM [inhibitor, single point]"
13,CCOC(=O)Cn1c(=O)c2c(nc(N3CCCCC3)n2Cc2ccccc2)n(C)c1=O,"inconclusive: 1.85 µM [inhibitor, full curve]"
14,CCCCn1c(SCC(=O)NCCOC)nc2ccc(N3CCOCC3)cc2c1=O,"inconclusive: 18.5 µM [inhibitor, single point]"
15,O=C(OCC(=O)C12CC3CC(CC(C3)C1)C2)c1cccnc1Cl,inactive
16,COc1ccc(/C=N/n2cnc3c([nH]c4ccc(C)cc43)c2=O)cc1CN1CCCC1,"inconclusive: 13.1 µM [inhibitor, partial curve]"
17,Cc1cccc(Cl)c1OCCCN1CCOCC1,active: 3.7 µM
18,Cc1ccc(C)c(NS(=O)(=O)c2ccc(-c3cnc(C4CC4)o3)cc2)c1,"inconclusive: 18.5 µM [inhibitor, single point]"
20,COc1cccc2cc(C(=O)C3=C(O)C(=O)N(CCN4CCOCC4)C3c3ccc(C(C)(C)C)cc3)oc12 (centres undefined),"inconclusive: 18.5 µM [inhibitor, single point]"
21,COc1ccccc1/C=N/NC(=O)C(C)Cn1cnc2ccccc21 (centres undefined),inactive
22,Cn1cc(CN2C[C@H]3CC[C@H]2C3)c(-c2ccccc2F)n1,"inconclusive: 14.7 µM [inhibitor, partial curve, poor fit]"
23,C/C(=N\NC(=O)c1cccc(Cl)c1)C1C(=O)c2ccccc2C1=O,"inconclusive: 18.5 µM [inhibitor, single point]"

# Another view of 16 compounds above:
row	Compound	Potency
8	O=C(NC1CCN(Cc2ccc(Cl)cc2)CC1)c1cn(-c2ccccc2)nc1-c1cccnc1	inconclusive: 3.29 µM [inhibitor, full curve, poor fit]
9	COc1ccc(/C=C/C(=O)c2cc(Br)ccc2O)cc1OC	inconclusive: 16.5 µM [inhibitor, single point]
10	CCOc1ccc(C(=O)OCC(=O)NC(C)C)cc1	inactive
11	COc1cccc(-n2c(SCC(=O)Nc3ccc4c(c3)CCC4)nc3ccccc3c2=O)c1	inconclusive: 16.5 µM [inhibitor, single point]
12	CCN1C(=O)[C@@H]2[C@@H](c3ccc(-c4ccc(Cl)c(Cl)c4)cc3)N3CCCC[C@@]3(C(=O)OC)[C@@H]2C1=O	inconclusive: 2.33 µM [inhibitor, full curve, poor fit]
13	O=C(COC(=O)c1cccc(S(=O)(=O)N2CCCC2)c1)NCc1ccccc1	inconclusive: 4.65 µM [inhibitor, partial curve, poor fit]
14	Cc1ccc(CCNS(=O)(=O)c2ccc3c(c2)NC(=O)CCS3)cc1	active: 13.1 µM
15	CN(C(=O)COC(=O)c1ccc(Cl)nc1)C1CCS(=O)(=O)C1 (centres undefined)	inactive
16	O=C(c1ccc2ccccc2c1)C1CCCN(C(=O)c2noc3c2CCCC3)C1 (centres undefined)	inconclusive: 13.1 µM [inhibitor, single point]
17	CC(Oc1cccc(Cl)c1)C(=O)Nc1cc(S(=O)(=O)N2CCOCC2)ccc1N1CCCCC1 (centres undefined)	inconclusive: 1.65 µM [inhibitor, full curve]
18	O=C(c1ccccc1[N+](=O)[O-])N1CCC(Cc2ccccc2)CC1	inconclusive: 0.104 µM [inhibitor, full curve, poor fit]
19	CN(C)/C=C/C(=O)c1ccc2noc(-c3cccc(F)c3)c2c1	inconclusive: 18.5 µM [inhibitor, single point]
20	Cc1ccc(S(=O)(=O)CCC(=O)Nc2sccc2C#N)cc1	inconclusive: 5.86 µM [inhibitor, partial curve]
21	Cn1cnnc1SCC(=O)Nc1cc(S(=O)(=O)N2CCCCCC2)ccc1Cl	inconclusive: 9.28 µM [inhibitor, partial curve, poor fit]
22	CC(/C=N/NC(=O)COc1ccccc1C)=N\NC(=O)COc1ccccc1C	inconclusive: 18.5 µM [inhibitor, single point]
23	COc1ccccc1NS(=O)(=O)c1cccc(C(=O)NNC(=O)c2ccc(NC(C)=O)cc2)c1	inconclusive: 4.15 µM [inhibitor, partial curve, poor fit]

# The list continues:

row,Compound,Potency
1,O=C(NC(c1ccccc1)c1ccccc1)C1CCCO1 (centres undefined),"inconclusive: 11.7 µM [inhibitor, partial curve]"
2,CC1CCC(NC(=O)C2CCN(C(=O)Nc3ccccc3)CC2)CC1 (centres undefined),inactive
3,Cc1ccc(-n2c(SCC(=O)Nc3ccc(Cl)cc3)nc(O)cc2=O)cc1,"inconclusive: 18.5 µM [inhibitor, single point]"
4,Cc1ccc(Oc2nc(-c3cccnc3)nc3ccccc23)c([N+](=O)[O-])n1,inactive
5,O=C(CSc1nc2ccccc2c(=O)n1-c1ccccc1F)Nc1ccc2c(c1)CCC2,"inconclusive: 10.4 µM [inhibitor, single point]"
6,CCOC(=O)c1c(NC(=O)C2CCCO2)sc(C)c1C (centres undefined),"inconclusive: 0.0033 µM [inhibitor, full curve, poor fit]"
7,CCCCn1c(=O)[nH]c(=O)c2c1ncn2Cc1ccco1,"inconclusive: 18.5 µM [inhibitor, single point]"
8,CC(=O)Cc1c(C(=O)O)c(C)nn1-c1ccccc1,inactive
9,Cc1cc(CN(C)C(=O)c2ccc(OC3CCN(CCc4ccccc4)CC3)cc2)on1,"inconclusive: 18.5 µM [inhibitor, single point]"
10,O=C(NCCCCCCNC(=O)OC1CCS(=O)(=O)C1)OC1CCS(=O)(=O)C1 (centres undefined),inactive
11,N/C(=N\c1nc(CSc2ccc(Cl)cc2)cc(=O)[nH]1)Nc1ccccc1C(F)(F)F,"inconclusive: 18.5 µM [inhibitor, single point]"
12,O=C(CSCc1ccc([N+](=O)[O-])cc1)Nc1ccc(S(=O)(=O)N2CCCCCC2)cc1,active: 10.4 µM
13,Cc1nnc(SCC(=O)N(CC(C)C)C2CCS(=O)(=O)C2)s1 (centres undefined),inactive
14,CN(C)C(=O)/C(C#N)=C\c1cc(Br)c(Sc2ccc(Cl)cc2)o1,"inconclusive: 13.1 µM [inhibitor, partial curve, poor fit]"
15,CSc1ccccc1C(=O)NCC(c1ccco1)N1CCCCC1 (centres undefined),"inconclusive: 10.4 µM [inhibitor, partial curve]"
16,O=C(CCc1ccccn1)N1CCCC(Nc2ccc(F)cc2)C1 (centres undefined),"inconclusive: 11.7 µM [inhibitor, single point]"
17,Cc1ccc(CSc2nsc(C)c2C#N)cc1,inactive
18,O=C(CSc1nc2ncc(Cl)cc2[nH]1)c1c[nH]c2ccccc12,active: 1.85 µM
19,N#CC1=C(N)Oc2cc(O)ccc2C1c1ccncc1 (centres undefined),active: 9.28 µM
20,Cc1cnc(NC(=O)c2ccc(-c3ccc([N+](=O)[O-])cc3)o2)s1,active: 6.57 µM
21,CCn1c(COc2ccc(=O)n(-c3ccccc3)n2)nnc1SCc1cccc(OC)c1,inactive
22,Cn1c(Cn2c(=O)sc3ccccc32)nnc1SCC(=O)Nc1ccc(Cl)cc1,active: 10.4 µM
23,CCCCCCN(CCCCCC)C(=O)Cc1c(-c2ccc(F)cc2)[nH]c2ccccc12,"inconclusive: 2.62 µM [inhibitor, single point]"
